From patent US20120282619A1
Results are given in words; binding and its absence hold for the method and conditions named. Some results given as binding are weak or reduced against the parent protein; the word gives no strength.

Chains of the proteins cited; added tags and fusions are not shown. Residues count along the entry.
UniProt Q05397, residues 2-1052: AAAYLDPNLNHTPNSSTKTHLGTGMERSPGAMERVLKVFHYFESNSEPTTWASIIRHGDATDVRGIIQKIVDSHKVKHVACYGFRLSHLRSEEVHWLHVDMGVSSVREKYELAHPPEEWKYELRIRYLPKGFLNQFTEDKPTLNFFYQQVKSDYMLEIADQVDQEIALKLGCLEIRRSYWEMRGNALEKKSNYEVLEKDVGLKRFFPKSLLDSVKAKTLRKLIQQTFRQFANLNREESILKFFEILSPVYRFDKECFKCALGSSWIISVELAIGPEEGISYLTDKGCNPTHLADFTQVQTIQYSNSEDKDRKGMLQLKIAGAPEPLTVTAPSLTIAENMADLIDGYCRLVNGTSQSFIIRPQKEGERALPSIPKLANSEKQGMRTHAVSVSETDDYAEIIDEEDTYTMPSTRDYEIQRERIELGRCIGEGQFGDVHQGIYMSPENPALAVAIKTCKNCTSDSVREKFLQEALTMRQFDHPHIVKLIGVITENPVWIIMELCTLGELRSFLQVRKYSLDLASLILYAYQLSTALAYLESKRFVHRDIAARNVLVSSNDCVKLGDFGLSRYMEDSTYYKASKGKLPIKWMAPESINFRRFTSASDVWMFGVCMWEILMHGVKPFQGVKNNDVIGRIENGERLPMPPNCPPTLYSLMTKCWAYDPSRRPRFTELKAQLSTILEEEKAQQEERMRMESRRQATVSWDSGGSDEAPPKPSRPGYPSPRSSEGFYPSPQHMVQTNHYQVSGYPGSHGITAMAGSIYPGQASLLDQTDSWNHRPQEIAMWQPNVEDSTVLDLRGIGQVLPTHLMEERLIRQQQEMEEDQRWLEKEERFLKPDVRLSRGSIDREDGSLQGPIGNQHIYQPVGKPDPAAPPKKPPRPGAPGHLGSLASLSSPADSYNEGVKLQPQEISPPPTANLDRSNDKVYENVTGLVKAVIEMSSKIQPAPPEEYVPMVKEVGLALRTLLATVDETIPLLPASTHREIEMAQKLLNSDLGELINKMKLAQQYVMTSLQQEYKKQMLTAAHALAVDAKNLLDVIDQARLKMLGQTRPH

Experiments:
[1] = target: T1, GTPase regulator associated with FAK (GRAF) (human) (UniProt Q9UNA1); assay: anti-FAK immunoprecipitation from Cp and Tp cell lysates, Western blot
T1 sequence (looked up): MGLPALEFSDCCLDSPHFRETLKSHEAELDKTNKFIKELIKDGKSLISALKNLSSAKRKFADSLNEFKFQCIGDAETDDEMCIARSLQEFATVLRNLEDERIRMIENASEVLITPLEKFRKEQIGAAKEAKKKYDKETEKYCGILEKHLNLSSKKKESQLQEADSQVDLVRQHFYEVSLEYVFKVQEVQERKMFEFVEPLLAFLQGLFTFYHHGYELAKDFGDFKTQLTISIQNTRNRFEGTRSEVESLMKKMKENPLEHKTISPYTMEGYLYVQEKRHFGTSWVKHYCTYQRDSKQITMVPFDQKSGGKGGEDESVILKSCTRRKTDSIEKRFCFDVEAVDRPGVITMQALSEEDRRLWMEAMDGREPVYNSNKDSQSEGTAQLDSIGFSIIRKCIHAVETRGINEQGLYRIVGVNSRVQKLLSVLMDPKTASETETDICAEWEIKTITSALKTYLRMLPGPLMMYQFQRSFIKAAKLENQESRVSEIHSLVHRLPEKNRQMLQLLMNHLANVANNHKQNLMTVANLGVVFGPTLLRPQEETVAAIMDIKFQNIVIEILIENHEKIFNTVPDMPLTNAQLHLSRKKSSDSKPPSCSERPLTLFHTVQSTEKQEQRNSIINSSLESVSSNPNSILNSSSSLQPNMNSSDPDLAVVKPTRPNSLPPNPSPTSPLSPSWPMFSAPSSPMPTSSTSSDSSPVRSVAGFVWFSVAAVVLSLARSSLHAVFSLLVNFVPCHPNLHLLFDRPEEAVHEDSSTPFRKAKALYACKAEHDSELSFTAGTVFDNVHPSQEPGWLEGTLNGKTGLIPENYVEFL

[2] = target: T2, p190RhoGAP (human) (UniProt Q9NRY4); assay: as above
T2 sequence (looked up): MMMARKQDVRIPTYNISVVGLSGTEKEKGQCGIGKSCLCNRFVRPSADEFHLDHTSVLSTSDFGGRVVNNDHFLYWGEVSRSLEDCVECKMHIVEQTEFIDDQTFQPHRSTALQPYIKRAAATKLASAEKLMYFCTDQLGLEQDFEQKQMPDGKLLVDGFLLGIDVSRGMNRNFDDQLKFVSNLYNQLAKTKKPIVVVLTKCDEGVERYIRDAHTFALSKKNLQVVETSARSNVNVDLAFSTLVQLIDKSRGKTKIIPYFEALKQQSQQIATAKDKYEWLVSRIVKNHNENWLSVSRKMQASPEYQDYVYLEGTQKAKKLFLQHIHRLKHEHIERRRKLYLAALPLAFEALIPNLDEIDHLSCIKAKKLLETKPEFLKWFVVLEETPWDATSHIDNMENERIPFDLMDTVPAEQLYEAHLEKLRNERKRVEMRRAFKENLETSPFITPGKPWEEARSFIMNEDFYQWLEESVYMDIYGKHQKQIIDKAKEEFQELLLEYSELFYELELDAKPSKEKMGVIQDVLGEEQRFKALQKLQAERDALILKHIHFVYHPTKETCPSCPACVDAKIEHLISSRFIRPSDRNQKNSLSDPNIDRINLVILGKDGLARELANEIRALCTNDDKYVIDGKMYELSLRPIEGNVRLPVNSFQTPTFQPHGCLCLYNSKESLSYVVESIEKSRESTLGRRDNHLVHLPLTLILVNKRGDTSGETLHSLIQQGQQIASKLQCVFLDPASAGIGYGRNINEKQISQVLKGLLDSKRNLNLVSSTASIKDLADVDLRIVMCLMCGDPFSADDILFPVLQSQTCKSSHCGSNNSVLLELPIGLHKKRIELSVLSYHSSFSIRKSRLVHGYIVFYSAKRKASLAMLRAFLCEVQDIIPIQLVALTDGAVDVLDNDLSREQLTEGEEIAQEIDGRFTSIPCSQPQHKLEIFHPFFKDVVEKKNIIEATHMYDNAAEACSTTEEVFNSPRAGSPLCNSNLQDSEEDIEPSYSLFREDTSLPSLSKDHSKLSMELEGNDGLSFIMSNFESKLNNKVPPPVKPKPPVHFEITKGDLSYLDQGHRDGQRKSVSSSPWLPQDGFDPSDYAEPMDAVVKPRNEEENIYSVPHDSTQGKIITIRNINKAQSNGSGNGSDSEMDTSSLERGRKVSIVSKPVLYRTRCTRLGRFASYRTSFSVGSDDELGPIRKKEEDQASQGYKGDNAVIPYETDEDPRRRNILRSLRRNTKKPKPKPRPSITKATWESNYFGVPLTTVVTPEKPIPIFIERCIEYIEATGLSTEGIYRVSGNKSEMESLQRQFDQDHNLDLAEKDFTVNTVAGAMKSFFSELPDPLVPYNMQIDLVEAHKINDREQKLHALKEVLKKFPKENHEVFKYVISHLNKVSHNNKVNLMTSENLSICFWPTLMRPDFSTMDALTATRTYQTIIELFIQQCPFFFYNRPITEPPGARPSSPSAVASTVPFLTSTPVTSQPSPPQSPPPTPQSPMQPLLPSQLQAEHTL

[3] = target: T1, GTPase regulator associated with FAK (GRAF) (human); assay: anti-FAK immunoprecipitation, Western blot (FIG. 9)
[4] = target: T2, p190RhoGAP (human); assay: as above

Measured: binding

focal adhesion kinase (FAK) (from UniProt Q05397 2-1052) (enzyme)
binds: all assays above
